Results reported in PMC3566133, “Molecular Analysis of the Prostacyclin Receptor’s Interaction with the PDZ1 Domain of Its Adaptor Protein PDZK1” (PLoS ONE, 2013).

Target: T1, recombinant protein corresponding to PDZ domain 1 (PDZ1) of PDZK1 (mouse)
T1 sequence (Q9JIL4 whole entry, looked up): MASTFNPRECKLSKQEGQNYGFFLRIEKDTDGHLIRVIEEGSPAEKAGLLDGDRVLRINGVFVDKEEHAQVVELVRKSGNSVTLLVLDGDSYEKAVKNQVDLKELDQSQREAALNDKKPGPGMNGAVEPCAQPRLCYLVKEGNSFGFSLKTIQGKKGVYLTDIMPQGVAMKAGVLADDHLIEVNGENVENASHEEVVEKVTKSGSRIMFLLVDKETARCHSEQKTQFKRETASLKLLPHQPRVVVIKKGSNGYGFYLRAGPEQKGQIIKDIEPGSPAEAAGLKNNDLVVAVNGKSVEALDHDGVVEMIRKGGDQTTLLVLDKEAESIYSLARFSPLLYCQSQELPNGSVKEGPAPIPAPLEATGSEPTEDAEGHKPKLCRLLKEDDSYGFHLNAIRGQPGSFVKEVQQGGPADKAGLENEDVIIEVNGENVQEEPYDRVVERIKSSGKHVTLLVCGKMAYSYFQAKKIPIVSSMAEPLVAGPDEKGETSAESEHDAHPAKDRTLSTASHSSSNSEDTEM
Assay: condition: 1.0 mM peptide titrated against 0.03 mM protein; ITC; 1.0 mM peptide injected in 10 µl aliquots into 0.03 mM PDZ1 or full length PDZK1 in the cell; 150 mM NaCl, 25 mM Tris pH 8.0, 0.5 mM TCEP, 20°C; VP-ITC; both purified

binding: no binding
Binder: KSEAIAAC [Peptide 2 (K407SEAIAAC414), carboxy-terminus of IP devoid of the three terminal amino acids SLC]

No constants are given. Whether binding was seen depends on the method and setting.
